# Reference: the supplement of paper PMC8728848
# The list shows a part of the results.
# B1: AT5G24760(45) (Arabidopsis thaliana), Q8LEB2 (protein)
# chain: MSASSSSFEQPQVITCNAAVAWRAGEPLVMEEVEVSPPQPLEIRIKVVCTSLCRSDLSAWESQSLLPRIFGHEAAGIVESIGEGVTEFEKGDHVLAVFTGECGSCRHCISGKSNMCQVLGMERKGLMHSDQKTRFSIKGKPVYHYCAVSSFSEYTVVHSGCAVKVDPLAPLHKICLLSCGVAAGLGAAWNVADVQKGSSVVIFGLGTVGLSVAQGAKLRGAAQILGVDINPAKAEQAKTFGVTDFINSNDLSEPIPQVIKRMTGGGADFSFECVGDTGIATTALQSCSDGWGMTVTLGVPKAKPEVSAHYGLFLSGKSLKGTLFGGWKPKSDLPSLIDKYMNKEIMIDEFITHNLSFDEINKAFVLMREGKCLRCVLHMPK
# Experiments:
# Assay in all cases: glycan array binding signal (z-score within array); higher = stronger binding
# Details in all cases: glycan notation: IUPAC condensed, linker removed
# [1] = target: Gal(b1-4)GlcNAc(b1-2)[Gal(b1-4)GlcNAc(b1-6)]Man(a1-6)[Gal(b1-4)GlcNAc(b1-2)Man(a1-3)]Man(b1-4)GlcNAc(b1-4)[Fuc(a1-6)]GlcNAc
# How it was run: (§1)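 Glycan array data came from 3228 arrays in the Consortium for Functional Glycomics database, and only arrays with an available protein sequence were kept. Glycan names were put into IUPAC-condensed notation, and columns mapping to the same glycan were averaged. The binding signal is a within-array Z-score, averaged across arrays of one protein sequence run at different concentrations or buffers and across linkers. A negative Z-score can be read as non-binding.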
# [2] = target: Gal(b1-4)GlcNAc(b1-2)[Gal(b1-4)GlcNAc(b1-6)]Man(a1-6)[GlcNAc(b1-4)][Gal(b1-4)GlcNAc(b1-2)Man(a1-3)]Man(b1-4)GlcNAc(b1-4)GlcNAc
# How it was run: as §1
# [3] = target: Gal(b1-4)GlcNAc(b1-2)[Gal(b1-4)GlcNAc(b1-6)]Man(a1-6)[GlcNAc(b1-4)][Gal(b1-4)GlcNAc(b1-2)[Gal(b1-4)GlcNAc(b1-4)]Man(a1-3)]Man(b1-4)GlcNAc(b1-4)[Fuc(a1-6)]GlcNAc
# How it was run: as §1
# [4] = target: Gal(b1-4)GlcNAc(b1-3)Gal(b1-3)GalNAc
# How it was run: as §1
# [5] = target: Gal(b1-4)GlcNAc(b1-3)Gal(b1-3)GlcNAc
# How it was run: as §1
# [6] = target: Gal(b1-4)GlcNAc(b1-3)Gal(b1-4)Glc
# How it was run: as §1
# [7] = target: Gal(b1-4)GlcNAc(b1-3)Gal(b1-4)GlcNAc
# How it was run: as §1
# [8] = target: Gal(b1-4)GlcNAc(b1-3)Gal(b1-4)GlcNAc(b1-2)Man(a1-3)[Gal(b1-4)GlcNAc(b1-3)Gal(b1-4)GlcNAc(b1-2)Man(a1-6)]Man(b1-4)GlcNAc(b1-4)GlcNAc
# How it was run: as §1
# [9] = target: Gal(b1-4)GlcNAc(b1-3)Gal(b1-4)GlcNAc(b1-2)Man(a1-3)[Gal(b1-4)GlcNAc(b1-3)Gal(b1-4)GlcNAc(b1-2)Man(a1-6)]Man(b1-4)GlcNAc(b1-4)[Fuc(a1-6)]GlcNAc
# How it was run: as §1
# [10] = target: Gal(b1-4)GlcNAc(b1-3)Gal(b1-4)GlcNAc(b1-2)[Gal(b1-4)GlcNAc(b1-3)Gal(b1-4)GlcNAc(b1-6)]Man(a1-6)[Gal(b1-4)GlcNAc(b1-3)Gal(b1-4)GlcNAc(b1-2)Man(a1-3)]Man(b1-4)GlcNAc(b1-4)GlcNAc
# How it was run: as §1
# [11] = target: Gal(b1-4)GlcNAc(b1-3)Gal(b1-4)GlcNAc(b1-2)[Gal(b1-4)GlcNAc(b1-3)Gal(b1-4)GlcNAc(b1-6)]Man(a1-6)[Gal(b1-4)GlcNAc(b1-3)Gal(b1-4)GlcNAc(b1-2)Man(a1-3)]Man(b1-4)GlcNAc(b1-4)[Fuc(a1-6)]GlcNAc
# How it was run: as §1
# [12] = target: Gal(b1-4)GlcNAc(b1-3)Gal(b1-4)GlcNAc(b1-3)Gal(b1-4)GlcNAc
# How it was run: as §1
# [13] = target: Gal(b1-4)GlcNAc(b1-3)Gal(b1-4)GlcNAc(b1-3)Gal(b1-4)GlcNAc(b1-2)Man(a1-3)[Gal(b1-4)GlcNAc(b1-3)Gal(b1-4)GlcNAc(b1-3)Gal(b1-4)GlcNAc(b1-2)Man(a1-6)]Man(b1-4)GlcNAc(b1-4)GlcNAc
# How it was run: as §1
# [14] = target: Gal(b1-4)GlcNAc(b1-3)Gal(b1-4)GlcNAc(b1-3)Gal(b1-4)GlcNAc(b1-2)Man(a1-3)[Gal(b1-4)GlcNAc(b1-3)Gal(b1-4)GlcNAc(b1-3)Gal(b1-4)GlcNAc(b1-2)Man(a1-6)]Man(b1-4)GlcNAc(b1-4)[Fuc(a1-6)]GlcNAc
# How it was run: as §1
# [15] = target: Gal(b1-4)GlcNAc(b1-3)Gal(b1-4)GlcNAc(b1-3)Gal(b1-4)GlcNAc(b1-2)[Gal(b1-4)GlcNAc(b1-3)Gal(b1-4)GlcNAc(b1-3)Gal(b1-4)GlcNAc(b1-6)]Man(a1-6)[Gal(b1-4)GlcNAc(b1-3)Gal(b1-4)GlcNAc(b1-3)Gal(b1-4)GlcNAc(b1-2)Man(a1-3)]Man(b1-4)GlcNAc(b1-4)[Fuc(a1-6)]GlcNAc
# How it was run: as §1
# [16] = target: Gal(b1-4)GlcNAc(b1-3)Gal(b1-4)GlcNAc(b1-3)Gal(b1-4)GlcNAc(b1-3)Gal(b1-4)GlcNAc(b1-2)Man(a1-3)[Gal(b1-4)GlcNAc(b1-3)Gal(b1-4)GlcNAc(b1-3)Gal(b1-4)GlcNAc(b1-3)Gal(b1-4)GlcNAc(b1-2)Man(a1-6)]Man(b1-4)GlcNAc(b1-4)GlcNAc
# How it was run: as §1
# [17] = target: Gal(b1-4)GlcNAc(b1-3)Gal(b1-4)GlcNAc(b1-3)Gal(b1-4)GlcNAc(b1-3)Gal(b1-4)GlcNAc(b1-2)Man(a1-3)[Gal(b1-4)GlcNAc(b1-3)Gal(b1-4)GlcNAc(b1-3)Gal(b1-4)GlcNAc(b1-3)Gal(b1-4)GlcNAc(b1-2)Man(a1-6)]Man(b1-4)GlcNAc(b1-4)[Fuc(a1-6)]GlcNAc
# How it was run: as §1
# [18] = target: Gal(b1-4)GlcNAc(b1-3)Gal(b1-4)GlcNAc(b1-3)Gal(b1-4)GlcNAc(b1-3)Gal(b1-4)GlcNAc(b1-2)[Gal(b1-4)GlcNAc(b1-3)Gal(b1-4)GlcNAc(b1-3)Gal(b1-4)GlcNAc(b1-3)Gal(b1-4)GlcNAc(b1-6)]Man(a1-6)[Gal(b1-4)GlcNAc(b1-3)Gal(b1-4)GlcNAc(b1-3)Gal(b1-4)GlcNAc(b1-3)Gal(b1-4)GlcNAc(b1-2)Man(a1-3)]Man(b1-4)GlcNAc(b1-4)[Fuc(a1-6)]GlcNAc
# How it was run: as §1
# [19] = target: Gal(b1-4)GlcNAc(b1-3)Gal(b1-4)GlcNAc(b1-3)Gal(b1-4)GlcNAc(b1-3)Gal(b1-4)GlcNAc(b1-3)Gal(b1-4)GlcNAc(b1-2)Man(a1-3)[Gal(b1-4)GlcNAc(b1-3)Gal(b1-4)GlcNAc(b1-3)Gal(b1-4)GlcNAc(b1-3)Gal(b1-4)GlcNAc(b1-3)Gal(b1-4)GlcNAc(b1-2)Man(a1-6)]Man(b1-4)GlcNAc(b1-4)GlcNAc
# How it was run: as §1
# [20] = target: Gal(b1-4)GlcNAc(b1-3)Gal(b1-4)GlcNAc(b1-3)Gal(b1-4)GlcNAc(b1-3)Gal(b1-4)GlcNAc(b1-3)Gal(b1-4)GlcNAc(b1-2)Man(a1-3)[Gal(b1-4)GlcNAc(b1-3)Gal(b1-4)GlcNAc(b1-3)Gal(b1-4)GlcNAc(b1-3)Gal(b1-4)GlcNAc(b1-3)Gal(b1-4)GlcNAc(b1-2)Man(a1-6)]Man(b1-4)GlcNAc(b1-4)[Fuc(a1-6)]GlcNAc
# How it was run: as §1
# [21] = target: Gal(b1-4)GlcNAc(b1-3)Gal(b1-4)GlcNAc(b1-3)Gal(b1-4)GlcNAc(b1-3)Gal(b1-4)GlcNAc(b1-3)Gal(b1-4)GlcNAc(b1-2)[Gal(b1-4)GlcNAc(b1-3)Gal(b1-4)GlcNAc(b1-3)Gal(b1-4)GlcNAc(b1-3)Gal(b1-4)GlcNAc(b1-3)Gal(b1-4)GlcNAc(b1-6)]Man(a1-6)[Gal(b1-4)GlcNAc(b1-3)Gal(b1-4)GlcNAc(b1-3)Gal(b1-4)GlcNAc(b1-3)Gal(b1-4)GlcNAc(b1-3)Gal(b1-4)GlcNAc(b1-2)Man(a1-3)]Man(b1-4)GlcNAc(b1-4)[Fuc(a1-6)]GlcNAc
# How it was run: as §1
# [22] = target: Gal(b1-4)GlcNAc(b1-3)Gal(b1-4)GlcNAc(b1-3)Gal(b1-4)GlcNAc(b1-3)Gal(b1-4)GlcNAc(b1-3)Gal(b1-4)GlcNAc(b1-3)Gal(b1-4)GlcNAc(b1-2)Man(a1-3)[Gal(b1-4)GlcNAc(b1-3)Gal(b1-4)GlcNAc(b1-3)Gal(b1-4)GlcNAc(b1-3)Gal(b1-4)GlcNAc(b1-3)Gal(b1-4)GlcNAc(b1-3)Gal(b1-4)GlcNAc(b1-2)Man(a1-6)]Man(b1-4)GlcNAc(b1-4)GlcNAc
# How it was run: as §1
# [23] = target: Gal(b1-4)GlcNAc(b1-3)Gal(b1-4)GlcNAc(b1-3)GalNAc
# How it was run: as §1
binder,measurement,setting,value
B1,glycan array binding signal (z-score),[1],-0.862
same,glycan array binding signal (z-score),[2],-1.03
same,glycan array binding signal (z-score),[3],-0.8
same,glycan array binding signal (z-score),[4],-0.403
same,glycan array binding signal (z-score),[5],-0.96
same,glycan array binding signal (z-score),[6],0.169
same,glycan array binding signal (z-score),[7],0.209
same,glycan array binding signal (z-score),[8],0.464
same,glycan array binding signal (z-score),[9],0.309
same,glycan array binding signal (z-score),[10],-0.397
same,glycan array binding signal (z-score),[11],-0.405
same,glycan array binding signal (z-score),[12],-0.696
same,glycan array binding signal (z-score),[13],-0.272
same,glycan array binding signal (z-score),[14],0.03
same,glycan array binding signal (z-score),[15],1.46
same,glycan array binding signal (z-score),[16],-0.516
same,glycan array binding signal (z-score),[17],-0.686
same,glycan array binding signal (z-score),[18],-0.779
same,glycan array binding signal (z-score),[19],-0.85
same,glycan array binding signal (z-score),[20],-0.823
same,glycan array binding signal (z-score),[21],-0.889
same,glycan array binding signal (z-score),[22],-0.887
same,glycan array binding signal (z-score),[23],-0.539

# 2 entries drawn at random from those above:
binder,measurement,setting,value
B1,glycan array binding signal (z-score),[3],-0.8
same,glycan array binding signal (z-score),[5],-0.96
